B1: CNTN1 (protein, UniProt Q12860 21-993, looked up)
Contactin-1: EFTWYRRYGHGVSEEDKGFGPIFEEQPINTIYPEESLEGKVSLNCRARASPFPVYKWRMNNGDVDLTSDRYSMVGGNLVINNPDKQKDAGIYYCLASNNYGMVRSTEATLSFGYLDPFPPEERPEVRVKEGKGMVLLCDPPYHFPDDLSYRWLLNEFPVFITMDKRRFVSQTNGNLYIANVEASDKGNYSCFVSSPSITKSVFSKFIPLIPIPERTTKPYPADIVVQFKDVYALMGQNVTLECFALGNPVPDIRWRKVLEPMPSTAEISTSGAVLKIFNIQLEDEGIYECEAENIRGKDKHQARIYVQAFPEWVEHINDTEVDIGSDLYWPCVATGKPIPTIRWLKNGYAYHKGELRLYDVTFENAGMYQCIAENTYGAIYANAELKILALAPTFEMNPMKKKILAAKGGRVIIECKPKAAPKPKFSWSKGTEWLVNSSRILIWEDGSLEINNITRNDGGIYTCFAENNRGKANSTGTLVITDPTRIILAPINADITVGENATMQCAASFDPALDLTFVWSFNGYVIDFNKENIHYQRNFMLDSNGELLIRNAQLKHAGRYTCTAQTIVDNSSASADLVVRGPPGPPGGLRIEDIRATSVALTWSRGSDNHSPISKYTIQTKTILSDDWKDAKTDPPIIEGNMEAARAVDLIPWMEYEFRVVATNTLGRGEPSIPSNRIKTDGAAPNVAPSDVGGGGGRNRELTITWAPLSREYHYGNNFGYIVAFKPFDGEEWKKVTVTNPDTGRYVHKDETMSPSTAFQVKVKAFNNKGDGPYSLVAVINSAQDAPSEAPTEVGVKVLSSSEISVHWEHVLEKIVESYQIRYWAAHDKEEAANRVQVTSQEYSARLENLLPDTQYFIEVGACNSAGCGPPSDMIEAFTKKAPPSQPPRIISSVRSGSRYIITWDHVVALSNESTVTGYKVLYRPDGQHDGKLYSTHKHSIEVPIPRDGEYVVEVRAHSDGGDGVVSQVKIS
B2: MVK (protein, UniProt Q03426 1-396, looked up)
Mevalonate kinase: MLSEVLLVSAPGKVILHGEHAVVHGKVALAVSLNLRTFLRLQPHSNGKVDLSLPNIGIKRAWDVARLQSLDTSFLEQGDVTTPTSEQVEKLKEVAGLPDDCAVTERLAVLAFLYLYLSICRKQRALPSLDIVVWSELPPGAGLGSSAAYSVCLAAALLTVCEEIPNPLKDGDCVNRWTKEDLELINKWAFQGERMIHGNPSGVDNAVSTWGGALRYHQGKISSLKRSPALQILLTNTKVPRNTRALVAGVRNRLLKFPEIVAPLLTSIDAISLECERVLGEMGEAPAPEQYLVLEELIDMNQHHLNALGVGHASLDQLCQVTRARGLHSKLTGAGGGGCGITLLKPGLEQPEVEATKQALTSCGFDCLETSIGAPGVSIHSATSLDSRVQQALDGL
B3: FOSB (protein, UniProt P53539 1-338, looked up)
Protein FosB: MFQAFPGDYDSGSRCSSSPSAESQYLSSVDSFGSPPTAAASQECAGLGEMPGSFVPTVTAITTSQDLQWLVQPTLISSMAQSQGQPLASQPPVVDPYDMPGTSYSTPGMSGYSSGGASGSGGPSTSGTTSGPGPARPARARPRRPREETLTPEEEEKRRVRRERNKLAAAKCRNRRRELTDRLQAETDQLEEEKAELESEIAELQKEKERLEFVLVAHKPGCKIPYEEGPGPGPLAEVRDLPGSAPAKEDGFSWLLPPPPPPPLPFQTSQDAPPNLTASLFTHSEVQVLGDPFPVVNPSYTSSFVLTCPEVSAFAGAQRTSGSDQPSDPLNSPSLLAL
B4: NFATC3 (protein, UniProt Q12968 2-1075, looked up)
Nuclear factor of activated …: TTANCGAHDELDFKLVFGEDGAPAPPPPGSRPADLEPDDCASIYIFNVDPPPSTLTTPLCLPHHGLPSHSSVLSPSFQLQSHKNYEGTCEIPESKYSPLGGPKPFECPSIQITSISPNCHQELDAHEDDLQINDPEREFLERPSRDHLYLPLEPSYRESSLSPSPASSISSRSWFSDASSCESLSHIYDDVDSELNEAAARFTLGSPLTSPGGSPGGCPGEETWHQQYGLGHSLSPRQSPCHSPRSSVTDENWLSPRPASGPSSRPTSPCGKRRHSSAEVCYAGSLSPHHSPVPSPGHSPRGSVTEDTWLNASVHGGSGLGPAVFPFQYCVETDIPLKTRKTSEDQAAILPGKLELCSDDQGSLSPARETSIDDGLGSQYPLKKDSCGDQFLSVPSPFTWSKPKPGHTPIFRTSSLPPLDWPLPAHFGQCELKIEVQPKTHHRAHYETEGSRGAVKASTGGHPVVKLLGYNEKPINLQMFIGTADDRYLRPHAFYQVHRITGKTVATASQEIIIASTKVLEIPLLPENNMSASIDCAGILKLRNSDIELRKGETDIGRKNTRVRLVFRVHIPQPSGKVLSLQIASIPVECSQRSAQELPHIEKYSINSCSVNGGHEMVVTGSNFLPESKIIFLEKGQDGRPQWEVEGKIIREKCQGAHIVLEVPPYHNPAVTAAVQVHFYLCNGKRKKSQSQRFTYTPVLMKQEHREEIDLSSVPSLPVPHPAQTQRPSSDSGCSHDSVLSGQRSLICSIPQTYASMVTSSHLPQLQCRDESVSKEQHMIPSPIVHQPFQVTPTPPVGSSYQPMQTNVVYNGPTCLPINAASSQEFDSVLFQQDATLSGLVNLGCQPLSSIPFHSSNSGSTGHLLAHTPHSVHTLPHLQSMGYHCSNTGQRSLSSPVADQITGQPSSQLQPITYGPSHSGSATTASPAASHPLASSPLSGPPSPQLQPMPYQSPSSGTASSPSPATRMHSGQHSTQAQSTGQGGLSAPSSLICHSLCDPASFPPDGATVSIKPEPEDREPNFATIGLQDITLDDVNEIIGRDMSQISVSQGAGVSRQAPLPSPESLDLGRSDGL
B5: HSD11B1 (protein, UniProt P28845 1-292, looked up)
11-beta-hydroxysteroid …: MAFMKKYLLPILGLFMAYYYYSANEEFRPEMLQGKKVIVTGASKGIGREMAYHLAKMGAHVVVTARSKETLQKVVSHCLELGAASAHYIAGTMEDMTFAEQFVAQAGKLMGGLDMLILNHITNTSLNLFHDDIHHVRKSMEVNFLSYVVLTVAALPMLKQSNGSIVVVSSLAGKVAYPMVAAYSASKFALDGFFSSIRKEYSVSRVNVSITLCVLGLIDTETAMKAVSGIVHMQAAPKEECALEIIKGGALRQEEVYYDSSLWTTLLIRNPCRKILEFLYSTSYNMDRFINK
B6: N2DL-2 (protein, UniProt Q9BZM5 26-217, looked up)
UL16-binding protein 2: GRADPHSLCYDITVIPKFRPGPRWCAVQGQVDEKTFLHYDCGNKTVTPVSPLGKKLNVTTAWKAQNPVLREVVDILTEQLRDIQLENYTPKEPLTLQARMSCEQKAEGHSSGSWQFSFDGQIFLLFDSEKRMWTTVHPGARKMKEKWENDKVVAMSFHYFSMGDCIGWLEDFLMGMDSTLEPSAGAPLAMSS
B7: DDAH1 (protein, UniProt O94760 2-285, looked up)
N(G),N(G)-dimethylarginine …: AGLGHPAAFGRATHAVVRALPESLGQHALRSAKGEEVDVARAERQHQLYVGVLGSKLGLQVVELPADESLPDCVFVEDVAVVCEETALITRPGAPSRRKEVDMMKEALEKLQLNIVEMKDENATLDGGDVLFTGREFFVGLSKRTNQRGAEILADTFKDYAVSTVPVADGLHLKSFCSMAGPNLIAIGSSESAQKALKIMQQMSDHRYDKLTVPDDIAANCIYLNIPNKGHVLLHRTPEEYPESAKVYEKLKDHMLIPVSMSELEKVDGLLTCCSVLINKKVDS
B8: IGFBP-1 (protein, UniProt P08833 26-259, looked up)
Insulin-like growth …: APWQCAPCSAEKLALCPPVSASCSEVTRSAGCGCCPMCALPLGAACGVATARCARGLSCRALPGEQQPLHALTRGQGACVQESDASAPHAAEAGSPESPESTEITEEELLDNFHLMAPSEEDHSILWDAISTYDGSKALHVTNIKKWKEPCRIELYRVVESLAKAQETSGEEISKFYLPNCNKNGFYHSRQCETSMDGEAGLCWCVYPWNGKRIPGSPEIRGDPNCQIYFNVQN

These molecules were tested on plasma proteins (assay: OLINK proximity extension assay of baseline plasma, CR compared to PD/Death, updated classification, Example 5 (Table 11)). Settings: itacitinib 200 or 300 mg QD plus corticosteroids, response at day 28.
Type: in vivo, human

Molecule | Fold Change, Up-Regulated in CR Compared to PD/Death | Fold Change, Down-Regulated in CR Compared to PD/Death
B1 | 1.791 | –
B2 | – | −2.6813
B3 | – | −2.6284
B4 | – | −2.5865
B5 | 1.7507 | –
B6 | – | −2.5399
B7 | – | −2.5062
B8 | – | −2.4965

Each molecule was assayed on plasma proteins (assay: Proteins of Table 11 stably expressed in complete responders between days 1 and 28, Example 5 (Table 12)). Settings: day 1 vs day 28.
Type: in vivo, human
Description: Due to the limited sample size, steroid-naive (N=10) and steroid-refractory (N=18) patients were combined for further analysis. Broad proteomic analysis of over 1000 proteins was conducted by OLINK Proteomics (Watertown, MA) using a proximity extension assay as described by the manufacturer. Data are presented as normalized protein expression (NPX) in log 2 scale. Statistical differences were evaluated using unpaired and paired t tests, one-way […] (ANOVA), and Pearson Correlation. Significance was conferred when P<0.05.

Molecule | Fold Change (D1 vs D28), proteins Up-Regulated in CR Compared to PD/Death | Fold Change (D1 vs D28), proteins Down-Regulated in CR Compared to PD/Death
B1 | 1.1978 | –
B2 | – | −1.2699
B3 | – | 1.0051
B4 | – | 1.0623
B5 | 1.1146 | –
B6 | – | −1.1284
B7 | – | −1.1714
B8 | – | −1.0455

Reference: patent US12099068B2, “Biomarkers for graft-versus-host disease” (Incyte Corporation, priority 2018, dated 2024)
